Assay results from patent EP1785721A1, “Microbial, viral and mammalian susceptibility to agents that affect cell growth and metabolism, and mode of action of compounds” (Stratos Bio Ltd., priority 2005, dated 2007).

Experiment: Activity (international units) of the antibiotics used

Polymyxin B sulphate
activity: 846.4 iU/ml
